Values from PubChem BioAssay AID652259 (Drosophila RNAi Screening Center, 2013)
Test: 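Identify new Wingless signalling regulators in fly cells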 (primary screen). Cell system: Drosophila clone 8 imaginal disc epithelial cells. Knock-down reagent: long dsRNA against Drosophila genes. Challenge: pathway stimulated by co-transfected Wingless expression plasmid. Measurement: 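Firefly luciferase from a tcf-site Wingless reporter, measured alongside co-transfected Renilla luciferase that tracks transfection; pathway stimulated by a Wingless plasmid; the firefly-to-Renilla ratio is not deposited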. Reading the numbers: firefly reporter light: higher = more Wg reporter light, before normalisation; Renilla control light: higher = more transfected or surviving cells. Hit rule: 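Strong candidates differ from their plate mean by at least two out of four per-plate statistical tests; weak candidates meet just one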. Meaning of the calls: active = candidate regulator (raises or lowers reporter); inactive = not a candidate.
The deposit covers about 22,000 reagents; shown is a random part of those with a known target gene and a result. In the full data, 233 (1.1%) are marked active. 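Light values are raw, unnormalised plate reads; the ratio scores behind the reporter calls were not deposited.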 Entries without a mark were called inactive. The numbers tell different reagents against one gene apart. A plus sign joins genes that one reagent is predicted to hit. Not given: the amount of reagent, the time to read-out, the dose of the treatment.

What is on record for CG31683 + CG18858?
firefly reporter light, replicate 1: 3296; firefly reporter light, replicate 2: 8948; Renilla control light, replicate 1: 890; Renilla control light, replicate 2: 3372

For CG15333 #1, how do the results read?
firefly reporter light, replicate 1: 13608; Renilla control light, replicate 1: 7072

With CG15333 #2, what does the deposit list?
firefly reporter light, replicate 1: 17484; Renilla control light, replicate 1: 7565

What is on record for Cph #1?
firefly reporter light, replicate 1: 5424; Renilla control light, replicate 1: 1217

With Cph #2, what does the deposit list?
firefly reporter light, replicate 1: 19064; Renilla control light, replicate 1: 6521

How did the screen score Ypel?
firefly reporter light, replicate 1: 1501; firefly reporter light, replicate 2: 6931; Renilla control light, replicate 1: 752; Renilla control light, replicate 2: 2071

With CG8839, what does the deposit list?
firefly reporter light, replicate 1: 6679; Renilla control light, replicate 1: 1628

What did the screen give for Saf6?
firefly reporter light, replicate 1: 11420; Renilla control light, replicate 1: 3721

What did the screen give for Dyro?
firefly reporter light, replicate 1: 8742; Renilla control light, replicate 1: 1702

With Mgat4b, how do the results read?
firefly reporter light, replicate 1: 7337; Renilla control light, replicate 1: 2439

For RpL39, what does the deposit list?
firefly reporter light, replicate 1: 4551; firefly reporter light, replicate 2: 9014; Renilla control light, replicate 1: 632; Renilla control light, replicate 2: 2448

For p23, how do the results read?
firefly reporter light, replicate 1: 8584; Renilla control light, replicate 1: 2675

What is on record for Acp53C14a?
firefly reporter light, replicate 1: 5888; Renilla control light, replicate 1: 1929

With Pop1, how do the results read?
firefly reporter light, replicate 1: 2363; firefly reporter light, replicate 2: 5719; Renilla control light, replicate 1: 1233; Renilla control light, replicate 2: 2641

Which result is listed for CG12825?
firefly reporter light, replicate 1: 4226; firefly reporter light, replicate 2: 9632; Renilla control light, replicate 1: 373; Renilla control light, replicate 2: 5266

How did the screen score tx?
firefly reporter light, replicate 1: 2685; firefly reporter light, replicate 2: 4393; Renilla control light, replicate 1: 1351; Renilla control light, replicate 2: 1814

What did the screen give for CG1598?
firefly reporter light, replicate 1: 3798; firefly reporter light, replicate 2: 10633; Renilla control light, replicate 1: 1107; Renilla control light, replicate 2: 2736

Copied from the list:
Mgat4b, firefly reporter light, replicate 1 = 7337
Under “firefly reporter light, replicate 1”, Acp53C14a has 5888
